From the supplement of paper PMC10849652
This is one part of the list.

Amino acid sequences for entries named in this document (tags omitted). A change or cut given only in a name is not applied to a line headed by its entry.
UniProt P52758: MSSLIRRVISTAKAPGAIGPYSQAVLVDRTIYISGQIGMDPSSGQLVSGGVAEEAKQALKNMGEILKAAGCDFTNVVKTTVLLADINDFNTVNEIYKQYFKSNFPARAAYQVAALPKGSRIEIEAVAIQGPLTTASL
UniProt Q9H871: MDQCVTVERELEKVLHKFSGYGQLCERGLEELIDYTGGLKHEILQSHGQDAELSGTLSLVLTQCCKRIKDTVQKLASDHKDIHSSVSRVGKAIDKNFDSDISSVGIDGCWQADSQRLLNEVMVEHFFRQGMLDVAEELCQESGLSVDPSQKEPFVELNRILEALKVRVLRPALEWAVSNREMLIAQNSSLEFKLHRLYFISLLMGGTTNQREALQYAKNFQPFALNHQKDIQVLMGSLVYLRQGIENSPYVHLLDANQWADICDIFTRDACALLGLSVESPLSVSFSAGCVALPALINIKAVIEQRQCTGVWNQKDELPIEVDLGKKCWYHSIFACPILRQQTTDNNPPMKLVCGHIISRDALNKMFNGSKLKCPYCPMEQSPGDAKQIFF
UniProt Q13546: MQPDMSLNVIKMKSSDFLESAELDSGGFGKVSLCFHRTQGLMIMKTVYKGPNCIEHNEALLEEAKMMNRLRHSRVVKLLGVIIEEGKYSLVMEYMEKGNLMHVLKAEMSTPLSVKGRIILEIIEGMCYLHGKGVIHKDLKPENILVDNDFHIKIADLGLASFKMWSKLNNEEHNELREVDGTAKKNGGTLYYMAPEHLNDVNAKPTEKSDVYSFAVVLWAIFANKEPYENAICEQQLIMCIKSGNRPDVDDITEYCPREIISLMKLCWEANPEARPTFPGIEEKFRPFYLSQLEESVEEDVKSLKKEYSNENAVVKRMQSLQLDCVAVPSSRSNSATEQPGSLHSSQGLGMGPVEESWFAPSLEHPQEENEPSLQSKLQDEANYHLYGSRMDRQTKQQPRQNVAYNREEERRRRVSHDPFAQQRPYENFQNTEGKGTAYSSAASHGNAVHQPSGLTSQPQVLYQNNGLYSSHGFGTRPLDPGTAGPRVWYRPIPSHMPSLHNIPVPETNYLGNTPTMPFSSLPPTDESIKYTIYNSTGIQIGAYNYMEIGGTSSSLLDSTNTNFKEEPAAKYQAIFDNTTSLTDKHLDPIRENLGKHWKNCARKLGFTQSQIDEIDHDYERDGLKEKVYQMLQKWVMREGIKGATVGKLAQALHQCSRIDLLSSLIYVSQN
UniProt Q9BV68: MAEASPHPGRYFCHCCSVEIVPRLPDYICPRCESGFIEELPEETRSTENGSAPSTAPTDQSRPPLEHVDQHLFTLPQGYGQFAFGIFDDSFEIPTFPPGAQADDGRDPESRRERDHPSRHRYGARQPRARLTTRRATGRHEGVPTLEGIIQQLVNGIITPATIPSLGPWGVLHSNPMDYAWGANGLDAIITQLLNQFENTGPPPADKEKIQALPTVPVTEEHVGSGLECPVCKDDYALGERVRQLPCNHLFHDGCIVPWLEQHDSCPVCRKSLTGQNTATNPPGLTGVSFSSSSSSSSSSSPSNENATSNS
UniProt P15927: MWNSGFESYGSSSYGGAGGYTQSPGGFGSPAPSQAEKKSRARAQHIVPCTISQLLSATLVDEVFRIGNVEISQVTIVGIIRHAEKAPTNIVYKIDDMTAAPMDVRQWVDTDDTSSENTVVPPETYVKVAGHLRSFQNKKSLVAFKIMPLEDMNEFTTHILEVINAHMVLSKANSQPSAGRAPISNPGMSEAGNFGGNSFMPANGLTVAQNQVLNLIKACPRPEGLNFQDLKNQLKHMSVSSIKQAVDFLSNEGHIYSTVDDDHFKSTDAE
UniProt P10155: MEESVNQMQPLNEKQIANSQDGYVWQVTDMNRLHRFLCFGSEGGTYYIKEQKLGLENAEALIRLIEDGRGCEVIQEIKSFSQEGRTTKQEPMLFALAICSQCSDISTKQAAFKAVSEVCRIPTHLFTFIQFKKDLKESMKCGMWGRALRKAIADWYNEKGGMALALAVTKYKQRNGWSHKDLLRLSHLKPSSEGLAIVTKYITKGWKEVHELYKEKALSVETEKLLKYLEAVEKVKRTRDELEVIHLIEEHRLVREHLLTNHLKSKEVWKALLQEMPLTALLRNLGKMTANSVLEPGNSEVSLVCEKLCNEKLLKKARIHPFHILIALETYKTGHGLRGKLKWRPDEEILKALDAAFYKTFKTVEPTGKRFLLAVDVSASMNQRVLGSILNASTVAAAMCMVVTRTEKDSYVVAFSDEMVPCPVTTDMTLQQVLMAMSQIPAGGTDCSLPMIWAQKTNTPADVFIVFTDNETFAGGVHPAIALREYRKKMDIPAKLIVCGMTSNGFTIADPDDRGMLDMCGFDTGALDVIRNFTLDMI
UniProt Q96BH1: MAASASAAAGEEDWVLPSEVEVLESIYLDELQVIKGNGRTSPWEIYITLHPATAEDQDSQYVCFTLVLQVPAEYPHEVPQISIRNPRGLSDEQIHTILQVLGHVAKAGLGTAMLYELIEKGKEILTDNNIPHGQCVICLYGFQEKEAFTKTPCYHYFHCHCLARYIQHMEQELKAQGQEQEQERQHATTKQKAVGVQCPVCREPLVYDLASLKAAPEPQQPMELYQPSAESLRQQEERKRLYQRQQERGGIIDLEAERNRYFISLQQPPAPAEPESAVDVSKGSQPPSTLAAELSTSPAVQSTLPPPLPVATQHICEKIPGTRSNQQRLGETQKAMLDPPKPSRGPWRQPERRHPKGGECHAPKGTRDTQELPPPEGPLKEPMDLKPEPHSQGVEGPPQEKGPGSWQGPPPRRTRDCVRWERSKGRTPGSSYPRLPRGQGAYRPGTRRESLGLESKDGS
UniProt Q6R327, whole entry, looked up: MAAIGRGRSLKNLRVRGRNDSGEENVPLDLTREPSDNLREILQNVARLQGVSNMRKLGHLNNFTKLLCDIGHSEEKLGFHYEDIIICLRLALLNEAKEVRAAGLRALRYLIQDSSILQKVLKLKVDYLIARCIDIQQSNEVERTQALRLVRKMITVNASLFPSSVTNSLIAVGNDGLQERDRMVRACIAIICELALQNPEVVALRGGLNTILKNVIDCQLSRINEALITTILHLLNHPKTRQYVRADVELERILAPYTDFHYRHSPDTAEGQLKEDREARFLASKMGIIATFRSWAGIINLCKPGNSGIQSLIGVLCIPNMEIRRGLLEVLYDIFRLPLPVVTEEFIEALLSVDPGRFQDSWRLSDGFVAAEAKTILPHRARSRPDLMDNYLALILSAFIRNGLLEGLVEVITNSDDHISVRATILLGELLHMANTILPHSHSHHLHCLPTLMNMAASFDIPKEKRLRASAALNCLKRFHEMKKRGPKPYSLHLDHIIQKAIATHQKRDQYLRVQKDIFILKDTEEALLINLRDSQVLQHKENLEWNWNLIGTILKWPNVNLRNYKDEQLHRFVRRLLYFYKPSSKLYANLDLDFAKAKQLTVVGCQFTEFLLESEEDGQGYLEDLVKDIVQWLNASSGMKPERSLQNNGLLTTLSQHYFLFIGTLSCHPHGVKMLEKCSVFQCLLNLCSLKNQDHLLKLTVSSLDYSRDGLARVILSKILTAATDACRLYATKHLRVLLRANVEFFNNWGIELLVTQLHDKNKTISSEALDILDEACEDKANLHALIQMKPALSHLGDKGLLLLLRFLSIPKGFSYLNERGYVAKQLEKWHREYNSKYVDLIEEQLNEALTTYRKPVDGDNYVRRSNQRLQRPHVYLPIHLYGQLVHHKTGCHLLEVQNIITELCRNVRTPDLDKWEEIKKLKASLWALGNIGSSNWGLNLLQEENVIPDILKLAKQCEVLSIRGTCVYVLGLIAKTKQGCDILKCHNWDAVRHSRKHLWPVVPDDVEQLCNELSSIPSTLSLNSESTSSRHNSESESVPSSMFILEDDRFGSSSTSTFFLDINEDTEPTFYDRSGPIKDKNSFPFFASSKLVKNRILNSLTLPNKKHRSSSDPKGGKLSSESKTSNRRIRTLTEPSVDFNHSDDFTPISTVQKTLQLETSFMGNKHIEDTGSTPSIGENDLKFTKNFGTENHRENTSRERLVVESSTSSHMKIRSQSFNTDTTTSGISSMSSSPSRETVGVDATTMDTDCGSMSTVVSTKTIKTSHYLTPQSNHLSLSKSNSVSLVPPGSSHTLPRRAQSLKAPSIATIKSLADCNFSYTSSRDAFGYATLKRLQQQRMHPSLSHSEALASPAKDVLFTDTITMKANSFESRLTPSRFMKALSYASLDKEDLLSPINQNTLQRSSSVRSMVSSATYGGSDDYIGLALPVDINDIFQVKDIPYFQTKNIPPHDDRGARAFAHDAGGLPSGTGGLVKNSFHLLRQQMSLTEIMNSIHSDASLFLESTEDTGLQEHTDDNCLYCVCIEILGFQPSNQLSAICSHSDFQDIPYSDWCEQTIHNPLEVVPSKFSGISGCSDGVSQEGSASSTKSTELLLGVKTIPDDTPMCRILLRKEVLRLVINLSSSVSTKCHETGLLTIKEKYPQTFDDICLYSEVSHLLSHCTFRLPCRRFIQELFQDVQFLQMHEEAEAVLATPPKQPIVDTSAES
UniProt Q15287: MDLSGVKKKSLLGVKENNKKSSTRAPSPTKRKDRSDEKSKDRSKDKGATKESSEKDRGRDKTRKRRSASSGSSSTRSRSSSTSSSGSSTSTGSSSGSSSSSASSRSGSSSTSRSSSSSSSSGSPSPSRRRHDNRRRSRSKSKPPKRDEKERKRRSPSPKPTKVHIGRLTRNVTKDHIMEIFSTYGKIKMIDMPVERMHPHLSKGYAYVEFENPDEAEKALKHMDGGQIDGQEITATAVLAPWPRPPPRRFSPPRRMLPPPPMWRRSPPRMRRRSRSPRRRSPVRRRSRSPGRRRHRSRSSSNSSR
UniProt P84095: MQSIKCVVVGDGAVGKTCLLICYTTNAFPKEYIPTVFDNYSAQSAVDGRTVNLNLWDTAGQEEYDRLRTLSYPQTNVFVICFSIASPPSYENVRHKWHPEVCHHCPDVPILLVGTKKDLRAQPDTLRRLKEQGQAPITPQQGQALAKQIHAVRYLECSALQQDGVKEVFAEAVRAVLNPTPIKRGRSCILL
UniProt Q96EP0: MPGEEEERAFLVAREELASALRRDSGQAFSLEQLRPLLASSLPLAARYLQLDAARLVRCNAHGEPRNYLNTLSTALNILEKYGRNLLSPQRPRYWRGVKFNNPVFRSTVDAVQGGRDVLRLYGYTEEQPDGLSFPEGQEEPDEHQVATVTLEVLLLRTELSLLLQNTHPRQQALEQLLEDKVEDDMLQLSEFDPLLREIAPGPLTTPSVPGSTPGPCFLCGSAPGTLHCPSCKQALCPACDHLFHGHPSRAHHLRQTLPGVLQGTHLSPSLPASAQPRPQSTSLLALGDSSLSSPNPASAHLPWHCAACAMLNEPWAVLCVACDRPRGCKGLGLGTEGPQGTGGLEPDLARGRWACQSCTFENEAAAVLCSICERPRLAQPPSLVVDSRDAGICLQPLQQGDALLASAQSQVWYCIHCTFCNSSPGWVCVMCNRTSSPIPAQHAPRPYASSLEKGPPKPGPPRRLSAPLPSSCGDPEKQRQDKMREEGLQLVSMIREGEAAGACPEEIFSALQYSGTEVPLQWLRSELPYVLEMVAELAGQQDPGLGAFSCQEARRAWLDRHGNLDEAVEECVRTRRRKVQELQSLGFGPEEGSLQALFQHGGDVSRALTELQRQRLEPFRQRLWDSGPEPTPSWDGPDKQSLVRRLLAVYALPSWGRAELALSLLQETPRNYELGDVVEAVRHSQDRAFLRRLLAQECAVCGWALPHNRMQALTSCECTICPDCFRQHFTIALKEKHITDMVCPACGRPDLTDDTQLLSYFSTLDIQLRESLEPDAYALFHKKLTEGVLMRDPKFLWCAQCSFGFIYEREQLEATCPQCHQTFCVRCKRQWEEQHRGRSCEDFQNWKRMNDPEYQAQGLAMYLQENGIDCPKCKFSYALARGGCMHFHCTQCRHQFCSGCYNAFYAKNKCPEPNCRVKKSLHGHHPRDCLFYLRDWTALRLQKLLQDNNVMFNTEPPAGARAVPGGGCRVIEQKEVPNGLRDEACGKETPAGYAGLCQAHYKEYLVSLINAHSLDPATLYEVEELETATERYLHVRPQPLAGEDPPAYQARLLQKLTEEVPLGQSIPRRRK
UniProt Q9P0P0: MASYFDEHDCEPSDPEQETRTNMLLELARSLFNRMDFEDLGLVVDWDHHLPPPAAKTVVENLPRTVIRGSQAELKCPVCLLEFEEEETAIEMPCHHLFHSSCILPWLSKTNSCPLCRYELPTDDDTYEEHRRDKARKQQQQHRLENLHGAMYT
UniProt Q8WVD5: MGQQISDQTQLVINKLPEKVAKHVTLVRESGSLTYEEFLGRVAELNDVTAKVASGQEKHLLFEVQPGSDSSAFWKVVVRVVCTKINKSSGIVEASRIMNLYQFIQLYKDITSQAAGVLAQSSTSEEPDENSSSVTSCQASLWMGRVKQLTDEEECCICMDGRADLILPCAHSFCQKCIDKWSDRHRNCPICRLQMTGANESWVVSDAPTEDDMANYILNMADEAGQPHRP

Assays:
Test in all cases: log2 fold change, soluble protein after heating vs DMSO (PISA); higher = thermal stabilisation; K562 lysate, 10 uM; active = over 0.2 and 3.5 SD of the protein, either way, in both replicates (recomputed)
[1] = compound: CCCS(=O)(=O)Nc1ccc(F)c(C(=O)c2c[nH]c3ncc(-c4ccc(Cl)cc4)cc23)c1F [vemurafenib]
Outline: (§1)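 The values are log-two fold changes in thermal stability compared with solvent controls and come from duplicates. They were obtained by TMTpro 16plex LC-MS/MS, with channel sums equalised, on the supernatant after 21,000xg for 90 min. That supernatant came from crude K562 extract at 1 mg/mL protein treated with 10 μM compound for 30 min, heated for 3 min across 48°C-58°C, pooled and brought to 0.5% NP-40 at 4°C.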

[2] = compound: CCCS(=O)(=O)Nc1ccc(F)c(C(=O)c2c[nH]c3ncc(Cl)cc23)c1F
Outline: as §1

[3] = compound: CCN(CCCOc1ccc2c(Nc3cc(CC(=O)Nc4cccc(F)c4)[nH]n3)ncnc2c1)CCOP(=O)(O)O [barasertib]
Outline: as §1

[4] = compound: CC[C@@H]1C(=O)N(C)c2cnc(Nc3ccc(C(=O)NC4CCN(C)CC4)cc3OC)nc2N1C1CCCC1
Outline: as §1

[5] = compound: CC[C@@H]1C(=O)N(C)c2cnc(Nc3ccc(C(=O)N[C@H]4CC[C@H](N5CCN(CC6CC6)CC5)CC4)cc3OC)nc2N1C(C)C [volasertib]
Outline: as §1

[6] = compound: CCn1c(C(=O)N(C2CC2)C2CC2)cc2c3c(ncn3C)c(Nc3cc(C)n(C)n3)nc21
Outline: as §1

[7] = compound: CCn1cc(-c2ccnc3[nH]c(-c4cccc(CN(C)C)c4)cc23)c(-c2ccc(NC(=O)N(C)C)cc2)n1
Outline: as §1

[8] = compound: CN1CCC(CNc2ccc3ncc(-c4cccc(OC(F)(F)F)c4)n3n2)CC1
Outline: as §1

[9] = compound: CN1CCN(CCOc2cc(OC3CCOCC3)c3c(Nc4c(Cl)ccc5c4OCO5)ncnc3c2)CC1 [saracatinib]
Outline: as §1

[10] = compound: CN1CCN(c2nc(C3=C(c4c[nH]c5ccccc45)C(=O)NC3=O)c3ccccc3n2)CC1 [sotrastaurin]
Outline: as §1

Measured: log2 fold change

RIDA (UniProt P52758)
inactive: [1] 0.023 | [2] 0.024 | [3] 0.069 | [4] 0.057 | [5] 0.023 | [6] 0.011 | [7] -0.018 | [8] -0.072 | [9] -0.01 | [10] 0.008

RPL34 (UniProt P49207)
inactive: [1] 0.011 | [2] -0.002 | [3] -0.043 | [4] -0.046 | [5] 0.002 | [6] -0.002 | [7] 0.006 | [8] 0.028 | [9] -0.008 | [10] -0.015

RPL31 (UniProt P62899)
inactive: [1] 0.01 | [2] 0.004 | [3] 0.004 | [4] 0.006 | [5] -0.005 | [6] -0.013 | [7] -0.043 | [8] -0.005 | [9] 0.024 | [10] 0.014

RMDN3 (UniProt Q96TC7)
inactive: [1] 0.003 | [2] -0.003 | [3] 0.063 | [4] 0.004 | [5] 0 | [6] 0.024 | [7] -0.158 | [8] -0.033 | [9] -0.041 | [10] 0.02

RPL10A (UniProt P62906)
inactive: [1] 0.006 | [2] 0.001 | [3] -0.018 | [4] 0.008 | [5] 0.006 | [6] -0.024 | [7] 0.102 | [8] 0.021 | [9] 0 | [10] -0.006

RMND5A (UniProt Q9H871)
inactive: [1] -0.036 | [2] 0.02 | [3] 0.05 | [4] 0.013 | [5] -0.003 | [6] -0.007 | [7] -0.11 | [8] 0.059 | [9] 0 | [10] 0.034

RIPK1 (UniProt Q13546)
inactive: [1] -0.053 | [2] 0.027 | [3] 0.01 | [4] -0.026 | [5] -0.066 | [6] 0.027 | [7] -0.019 | [8] -0.013 | [9] 0.016 | [10] -0.045

RNF126 (UniProt Q9BV68)
inactive: [1] 0.094 | [2] 0.044 | [3] 0.052 | [4] -0.043 | [5] 0.009 | [6] 0.001 | [7] 0.129 | [8] -0.071 | [9] 0.104 | [10] -0.253

RNF220 (UniProt Q5VTB9)
inactive: [1] 0.041 | [2] 0.057 | [3] 0.041 | [4] 0.037 | [5] -0.046 | [6] -0.049 | [7] -0.012 | [8] 0.04 | [9] 0 | [10] -0.013

RPL10 (UniProt P27635)
inactive: [1] -0.074 | [2] 0.02 | [3] -0.032 | [4] -0.065 | [5] -0.005 | [6] 0.016 | [7] 0.146 | [8] -0.124 | [9] 0.006 | [10] 0.008

RPL27A (UniProt P46776)
inactive: [1] -0.003 | [2] -0.004 | [3] -0.048 | [4] 0.015 | [5] -0.02 | [6] -0.005 | [7] -0.068 | [8] 0.033 | [9] -0.028 | [10] -0.001

RPL23A (UniProt P62750)
inactive: [1] 0.009 | [2] -0.003 | [3] -0.007 | [4] 0.03 | [5] -0.001 | [6] -0.014 | [7] 0.241 | [8] -0.113 | [9] -0.009 | [10] 0.005

RPA2 isoform 3 (UniProt P15927)
inactive: [1] 0.054 | [2] 0.022 | [3] -0.019 | [4] 0.007 | [5] 0.019 | [6] -0.017 | [7] -0.075 | [8] 0.039 | [9] -0.016 | [10] -0.008

RO60 (UniProt P10155)
inactive: [1] -0.02 | [2] -0.005 | [3] -0.017 | [4] 0.02 | [5] 0.024 | [6] -0.018 | [7] 0.025 | [8] -0.06 | [9] -0.012 | [10] -0.015

RIOX2 (UniProt Q8IUF8)
inactive: [1] 0.052 | [2] -0.022 | [3] -0.008 | [4] 0.007 | [5] 0.001 | [6] -0.038 | [7] 0.16 | [8] -0.102 | [9] -0.002 | [10] 0.05

RPL21 (UniProt P46778)
inactive: [1] 0.019 | [2] 0.024 | [3] -0.045 | [4] 0.037 | [5] -0.003 | [6] -0.045 | [7] -0.002 | [8] 0.026 | [9] 0.008 | [10] 0.002

RPL26L1 (UniProt Q9UNX3)
inactive: [1] -0.018 | [2] -0.006 | [3] 0.016 | [4] 0.003 | [5] -0.013 | [6] 0.036 | [7] 0.202 | [8] -0.148 | [9] -0.004 | [10] -0.007

RPL10 (UniProt F8W7C6)
inactive: [1] 0.122 | [2] 0.022 | [3] -0.046 | [4] -0.079 | [5] 0.035 | [6] 0.007 | [7] 0.034 | [8] 0.059 | [9] 0.019 | [10] -0.056

RNF25 (UniProt Q96BH1)
inactive: [1] -0.005 | [2] 0.031 | [3] -0.045 | [4] 0.024 | [5] 0.015 | [6] -0.024 | [7] -0.011 | [8] 0.027 | [9] 0.027 | [10] -0.014

Taken from the results shown (9 entries):
RIDA (UniProt P52758)
inactive: [1] 0.023 | [2] 0.024 | [3] 0.069 | [4] 0.057 | [5] 0.023 | [6] 0.011 | [7] -0.018 | [8] -0.072 | [9] -0.01 | [10] 0.008

RPL34 (UniProt P49207)
inactive: [1] 0.011 | [2] -0.002 | [3] -0.043 | [4] -0.046 | [5] 0.002 | [6] -0.002 | [7] 0.006 | [8] 0.028 | [9] -0.008 | [10] -0.015

RPL31 (UniProt P62899)
inactive: [1] 0.01 | [2] 0.004 | [3] 0.004 | [4] 0.006 | [5] -0.005 | [6] -0.013 | [7] -0.043 | [8] -0.005 | [9] 0.024 | [10] 0.014

RMDN3 (UniProt Q96TC7)
inactive: [1] 0.003 | [2] -0.003 | [3] 0.063 | [4] 0.004 | [5] 0 | [6] 0.024 | [7] -0.158 | [8] -0.033 | [9] -0.041 | [10] 0.02

RPL10A (UniProt P62906)
inactive: [1] 0.006 | [2] 0.001 | [3] -0.018 | [4] 0.008 | [5] 0.006 | [6] -0.024 | [7] 0.102 | [8] 0.021 | [9] 0 | [10] -0.006

RMND5A (UniProt Q9H871)
inactive: [1] -0.036 | [2] 0.02 | [3] 0.05 | [4] 0.013 | [5] -0.003 | [6] -0.007 | [7] -0.11 | [8] 0.059 | [9] 0 | [10] 0.034

RIPK1 (UniProt Q13546)
inactive: [1] -0.053 | [2] 0.027 | [3] 0.01 | [4] -0.026 | [5] -0.066 | [6] 0.027 | [7] -0.019 | [8] -0.013 | [9] 0.016 | [10] -0.045

RNF126 (UniProt Q9BV68)
inactive: [1] 0.094 | [2] 0.044 | [3] 0.052 | [4] -0.043 | [5] 0.009 | [6] 0.001 | [7] 0.129 | [8] -0.071 | [9] 0.104 | [10] -0.253

RNF220 (UniProt Q5VTB9)
inactive: [1] 0.041 | [2] 0.057 | [3] 0.041 | [4] 0.037 | [5] -0.046 | [6] -0.049 | [7] -0.012 | [8] 0.04 | [9] 0 | [10] -0.013

(listing goes on)

RICTOR isoform 3 (UniProt Q6R327)
inactive: [1] -0.325 | [2] 0.045 | [3] -0.076 | [4] 0.041 | [5] -0.061 | [6] 0.041 | [7] -0.061 | [8] -0.096 | [9] 0.033 | [10] -0.007

RPL36A (UniProt P83881)
inactive: [1] 0.017 | [2] -0.051 | [3] -0.057 | [4] 0.133 | [5] 0.018 | [6] 0.009 | [7] -0.03 | [8] 0.007 | [9] -0.017 | [10] 0.035

RPL30 (UniProt P62888)
inactive: [1] -0.029 | [2] 0.028 | [3] -0.029 | [4] -0.023 | [5] 0 | [6] -0.044 | [7] -0.037 | [8] 0.04 | [9] -0.003 | [10] -0.011

RNPS1 (UniProt Q15287)
inactive: [1] -0.03 | [2] 0.001 | [3] -0.008 | [4] -0.175 | [5] 0.043 | [6] -0.022 | [7] 0.02 | [8] 0.077 | [9] -0.04 | [10] -0.003

RPL18A (UniProt Q02543)
inactive: [1] 0 | [2] 0.002 | [3] -0.017 | [4] 0.009 | [5] -0.013 | [6] -0.017 | [7] 0.22 | [8] -0.016 | [9] 0.019 | [10] -0.015

RHOG (UniProt P84095)
inactive: [1] -0.042 | [2] 0.012 | [3] 0.009 | [4] 0.02 | [5] -0.023 | [6] -0.011 | [7] -0.01 | [8] 0.019 | [9] 0.005 | [10] -0.004

RPA1 (UniProt P27694)
inactive: [1] -0.016 | [2] 0.03 | [3] 0.006 | [4] 0 | [5] -0.003 | [6] 0.001 | [7] 0.114 | [8] -0.099 | [9] -0.016 | [10] -0.006

RNF31 (UniProt Q96EP0)
inactive: [1] 0.02 | [2] 0.021 | [3] 0.021 | [4] -0.001 | [5] -0.104 | [6] 0.006 | [7] 0.001 | [8] -0.03 | [9] 0 | [10] 0.013

RNF181 (UniProt Q9P0P0)
inactive: [1] -0.06 | [2] 0.025 | [3] 0.179 | [4] -0.036 | [5] 0.004 | [6] 0.018 | [7] -0.013 | [8] -0.035 | [9] -0.03 | [10] -0.02

RNF141 (UniProt Q8WVD5)
inactive: [1] -0.051 | [2] 0 | [3] -0.01 | [4] 0.084 | [5] 0.035 | [6] -0.009 | [7] 0.001 | [8] 0.026 | [9] 0.007 | [10] 0.158

RPL36 (UniProt Q9Y3U8)
inactive: [1] 0.018 | [2] 0.011 | [3] -0.054 | [4] 0.008 | [5] 0.019 | [6] -0.006 | [7] -0.292 | [8] 0.014 | [9] -0.005 | [10] -0.005
